# Percent effect of library compounds

From ChEMBL document CHEMBL3988442, “University of Dundee, Small-Polar-MMV Screening Library” (2021).

Mtb cholesterol medium: 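Whole-cell growth test on Mycobacterium tuberculosis, read after 4 days in a medium based on cholesterol and the lipid DPPC; the read-out is not stated. Concentration: 50 µM. Higher reads as more growth inhibition (inferred: compounds with an IC50 in retests scored well above the rest). Size under these conditions: about 69,000 compounds, about 370 of them at 50% or above in at least one test.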
Mtb glucose medium: 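Whole-cell growth test on Mycobacterium tuberculosis, read after 3 days in glucose-containing 7H9 medium; the read-out is not stated. Compounds at 50 µM. Direction is inferred from retests: higher values go with more growth inhibition. Of about 69,000 compounds tested this way, about 760 (1.1%) reached 50% or more in at least one test.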

Results are given as percent effect.
How 0% and 100% were set is not recorded. Most values in the screen are low, and negative values occur.
This is an unselected part of the compounds tested.
Two or more numbers in one place are separate tests of the same structure; such repeats can differ widely.

| Compound | Mtb cholesterol medium | Mtb glucose medium |
|---|---|---|
| `C=C(C)CN(Cc1cccc(O)c1)C1CCC(O)CC1` (stereo not shown) | 3.159% | 17.29% |
| `COc1ccc(Cl)cc1C(=O)N(C)Cc1cc(C)on1` | 1.838% | 4.181% |
| `[H][C@@]12COC[C@]1(COc1ccc(C#N)cn1)CN(Cc1scnc1C)C2` | -12.78% | -2.281% |
| `Cc1ncsc1CCN(C)Cc1cc2n(n1)CCN(S(C)(=O)=O)C2` | -26.41% | -49.02% |
| `O=C(O)C(F)(F)F.[H][C@]12CCN(C(=O)Cc3ccc(F)cc3)C[C@@]1([H])OCCN(CCOC)C2` | -12.46% | -9.518% & -52.56% |
| `COc1ccc(C2(NC(=O)C3CC(=O)N(C)C3)CCCC2)cc1` (stereo not shown) | -11.97% | 13.15% |
| `CC(C)CNc1cc(-c2c[nH]nc2C2CCN(C(=O)C3CC3)C2)ccn1` (stereo not shown) | 1.704% & 10.63% | 6.072% |
| `N#Cc1ncn(CCC(=O)Nc2cc(Cl)ccc2Cl)n1` | -2.491% | 8.123% |
| `CN(C)CCNC(=O)c1cc(-c2cnc(N3CCOCC3)nc2)cn1C.O=C(O)C(F)(F)F` | -9.59% & 14.89% | -6.912% |
| `Cc1cnn(CC2CCCN2Cc2coc(-c3ccc(F)cc3)n2)c1` (stereo not shown) | 0.4895% | -3.642% |
| `CCC(C)(CC(=O)OC)NCc1cc(C)on1` (stereo not shown) | 2.301% | 0.7311% & -18.18% |
| `COCCCn1ccc(NC(=O)NCc2cccc(N(C)C)c2)n1` | 7.384% | -5.368% |
| `Cc1cc(CN(C)C(=O)NC2CCS(=O)(=O)C2)no1` (stereo not shown) | 2.97% | 24.96% |
| `O=C(CCN1CCCO1)NC1CCCN(CC2CCCCC2)C1` (stereo not shown) | 3.405% | 13.07% |
| `CCn1cnnc1C1CCN(C(=O)c2cccc(-n3cccc3)c2)CC1` | 6.534% | 21.61% |
| `CCn1nc(C)c(S(=O)(=O)Nc2cccc(C(=O)O)c2C)c1C` | -16.94% | -16.95% |
| `O=C(NC1CCS(=O)(=O)C1)c1sccc1OC(F)F` (stereo not shown) | -18.31% | 6.548% |
| `Cc1cc(C)cc(C(=O)NCc2ncnn2C)c1` | 15.39% | 37.94% |
| `COC1CCN(C(=O)c2csc(-c3ccccc3F)n2)CC1` | 0.2861% & -8.79% | -11.31% |
| `CCc1cc(C(=O)N2CCc3c(ncn3CCc3ccccc3)C2)[nH]n1` | -7.529% & 1.597% | -13.16% |
| `CC1CN(Cc2cccc(C#N)c2)CCN1c1ccc2nncn2n1` (stereo not shown) | 5.058% | 32.6% |
| `CN(C(=O)CCNC(=O)C1COc2ccccc21)c1ccccc1` (stereo not shown) | 4.415% | 30.9% |
| `Cc1nc(C2CCN(C(=O)c3cnc(N(C)C)nc3)CC2)c2sccn12` | 9.105% | -3.14% |
| `CC(CNC(=O)c1cc(N2CCNC2=O)ccc1F)c1ccccc1` (stereo not shown) | 32.34% | 27.49% |
| `O=C(NCc1ccco1)N1CCOC(c2ccccc2Cl)C1` (stereo not shown) | 38.55% | 35.96% |
| `Cc1cc(NC(=O)CN2CCCC2c2noc(C(C)C)n2)n(C)n1` (stereo not shown) | -2.655% | 9.684% |
| `O=C(NCCNc1cnccn1)c1scnc1Cl` | -29.22% | -2.868% |
| `COc1ncccc1CN1CC[C@]2(C[C@@H](OCc3ccccn3)CO2)C1.O=C(O)C(F)(F)F.O=C(O)C(F)(F)F.O=C(O)C(F)(F)F` | 2.242% | 26.13% |
| `CSC(C)(C)CNC(=O)NC1CCN(CC=C(C)C)CC1` | -41.95% & -4.122% | -68.11% |
| `O=C(NCCCNc1ccc(C(F)(F)F)cn1)c1ccc(F)cc1F` | 35.63% | 25% |
| `CCc1ccc(C2CC(=O)Nc3cc(OC)c(NS(C)(=O)=O)cc32)o1` (stereo not shown) | -6.565% & 14.21% | 23.55% |
| `O=C(c1cccn1Cc1cccs1)N1CCSCC1` | -5.452% | -4.364% |
| `COCCC1COC2(CCN(C(=O)c3cccn3C)CC2)C1` (stereo not shown) | 13.3% & -9.046% | -0.3274% |
| `Fc1ccc(-c2nccnc2C2CCCNC2)cc1` (stereo not shown) | -17.15% | -12.27% |
| `Cn1c2c(c(=O)n1C)CN(C(=O)c1ccco1)CCC2` | 62.51% & -26.21% | -23.72% & -14.14% |
| `COc1cccc2c1OCC(NC(=O)NCCC(N)=O)C2` (stereo not shown) | -14.51% | 0.5988% |
| `Cn1cc(C2CCCN2C(=O)c2ccc(Br)o2)cn1` (stereo not shown) | -7.409% | 1.063% |
| `CC(C)c1nc2c(n1C)CCN(Cc1cccc(C(N)=O)c1)C2` | 11.85% | 28.39% |
| `O=C(c1ccco1)N1CCCn2cnc(COCC3CC3)c2C1` | -8.094% & -9.606% | 1.391% |
| `CCOC(=O)N1CCN(C(=O)Cc2c(C)nc(C)[nH]c2=O)CC1` | -2.56% | -6.124% & -14.41% |
| `Cc1oncc1C(=O)N1CCC(O)(CN2CCOCC2)C(C)(C)C1` (stereo not shown) | -17.69% | -3.953% |
| `Cc1cccc(CN2CCC(C3Nc4ccccc4S(=O)(=O)N3)CC2)n1` (stereo not shown) | -8.75% | 2.605% |
| `COc1ccc2[nH]nc(CN3CCN(Cc4cccc(F)c4)CC3)c2c1` | 5.778% | 13.83% & 21.13% |
| `c1csc(N2CCN(Cc3cc4n(n3)CCNC4)CC2)n1` | 15.55% | 38.08% |
| `Cc1cc(C)c2nc(CN3CCC(CN)CC3)cc(O)c2c1` | -8.704% | -6.254% |
| `CCc1nc(CC(=O)N2CCN(c3cnccn3)CC2)cs1` | -7.675% | -6.225% |
| `COCCOCCCNC(=O)c1cc(Cl)cc2cccnc12` | -12.23% | -29.59% |
| `O=C(NS(=O)(=O)c1cccc(F)c1)c1ccccc1F` | -15.48% | -35.12% |
| `Cc1ccc(C(=O)N2CCN(CCCSCC#N)CC2)cc1F` | -0.3505% | -8.13% |
| `CCN(Cc1ccco1)C(C)c1nc(C(C)(C)C)no1` (stereo not shown) | -20.78% & -14.66% | -2.994% |
| `CCc1nc(C2CCCN2CC(=O)N2CCc3ccccc32)no1` (stereo not shown) | 3.13% | 12.89% & 17.43% |
| `CC(C)CC(CCO)CNC(=O)N1CCOC2(CCCC2)C1` (stereo not shown) | -3.816% | 1.088% & 3.042% |

Once more, the final 5:

{"compound": "O=C(NS(=O)(=O)c1cccc(F)c1)c1ccccc1F", "Mtb cholesterol medium": -15.48, "Mtb glucose medium": -35.12}
{"compound": "Cc1ccc(C(=O)N2CCN(CCCSCC#N)CC2)cc1F", "Mtb cholesterol medium": -0.3505, "Mtb glucose medium": -8.13}
{"compound": "CCN(Cc1ccco1)C(C)c1nc(C(C)(C)C)no1", "stereo": "stereo not shown", "Mtb cholesterol medium": "-20.78 & -14.66", "Mtb glucose medium": -2.994}
{"compound": "CCc1nc(C2CCCN2CC(=O)N2CCc3ccccc32)no1", "stereo": "stereo not shown", "Mtb cholesterol medium": 3.13, "Mtb glucose medium": "12.89 & 17.43"}
{"compound": "CC(C)CC(CCO)CNC(=O)N1CCOC2(CCCC2)C1", "stereo": "stereo not shown", "Mtb cholesterol medium": -3.816, "Mtb glucose medium": "1.088 & 3.042"}